Source: publication PMC3034716
Results are given in words; binding and its absence hold for the method and conditions named. Some entries that bind do so weakly or less than the wild type.

Chains of the proteins cited; added tags and fusions are not shown. Lines headed by an entry give the natural chain unless they say otherwise; changes in a name come on top. Residues count along the entry.
UniProt P10809, residues 27-573: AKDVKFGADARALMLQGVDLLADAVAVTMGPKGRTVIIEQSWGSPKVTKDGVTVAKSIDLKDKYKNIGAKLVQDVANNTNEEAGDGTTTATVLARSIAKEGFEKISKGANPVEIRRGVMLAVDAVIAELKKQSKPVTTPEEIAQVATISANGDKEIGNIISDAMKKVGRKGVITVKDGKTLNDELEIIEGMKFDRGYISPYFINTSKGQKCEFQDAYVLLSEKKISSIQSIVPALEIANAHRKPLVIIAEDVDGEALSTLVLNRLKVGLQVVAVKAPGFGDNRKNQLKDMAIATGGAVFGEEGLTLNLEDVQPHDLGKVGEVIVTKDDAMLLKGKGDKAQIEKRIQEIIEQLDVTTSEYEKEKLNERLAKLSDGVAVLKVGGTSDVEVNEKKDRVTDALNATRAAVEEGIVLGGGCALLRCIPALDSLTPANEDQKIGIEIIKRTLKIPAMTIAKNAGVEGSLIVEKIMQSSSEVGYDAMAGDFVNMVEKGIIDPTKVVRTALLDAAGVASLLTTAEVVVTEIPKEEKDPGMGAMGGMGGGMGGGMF
UniProt P14625, residues 22-803: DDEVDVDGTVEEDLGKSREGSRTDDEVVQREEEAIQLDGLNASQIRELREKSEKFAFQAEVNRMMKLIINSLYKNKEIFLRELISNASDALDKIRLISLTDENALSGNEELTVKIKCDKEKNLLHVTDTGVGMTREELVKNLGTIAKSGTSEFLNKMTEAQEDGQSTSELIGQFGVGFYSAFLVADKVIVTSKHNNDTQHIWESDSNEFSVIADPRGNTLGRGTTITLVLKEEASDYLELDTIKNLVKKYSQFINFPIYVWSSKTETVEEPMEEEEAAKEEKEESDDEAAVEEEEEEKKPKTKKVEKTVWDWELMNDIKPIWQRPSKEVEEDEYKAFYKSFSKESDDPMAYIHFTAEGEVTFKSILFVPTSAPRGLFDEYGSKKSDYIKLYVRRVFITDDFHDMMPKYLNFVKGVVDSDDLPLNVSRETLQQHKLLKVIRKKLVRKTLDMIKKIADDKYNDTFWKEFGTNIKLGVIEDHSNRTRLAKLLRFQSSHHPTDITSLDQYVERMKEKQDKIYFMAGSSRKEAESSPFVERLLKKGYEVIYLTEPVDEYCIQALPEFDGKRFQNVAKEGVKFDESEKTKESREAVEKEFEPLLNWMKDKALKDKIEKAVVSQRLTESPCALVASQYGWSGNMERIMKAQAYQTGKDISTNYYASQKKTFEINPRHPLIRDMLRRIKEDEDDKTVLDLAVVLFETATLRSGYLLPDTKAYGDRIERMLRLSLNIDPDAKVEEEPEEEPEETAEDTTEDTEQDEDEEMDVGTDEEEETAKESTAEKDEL
UniProt P07237, residues 18-508: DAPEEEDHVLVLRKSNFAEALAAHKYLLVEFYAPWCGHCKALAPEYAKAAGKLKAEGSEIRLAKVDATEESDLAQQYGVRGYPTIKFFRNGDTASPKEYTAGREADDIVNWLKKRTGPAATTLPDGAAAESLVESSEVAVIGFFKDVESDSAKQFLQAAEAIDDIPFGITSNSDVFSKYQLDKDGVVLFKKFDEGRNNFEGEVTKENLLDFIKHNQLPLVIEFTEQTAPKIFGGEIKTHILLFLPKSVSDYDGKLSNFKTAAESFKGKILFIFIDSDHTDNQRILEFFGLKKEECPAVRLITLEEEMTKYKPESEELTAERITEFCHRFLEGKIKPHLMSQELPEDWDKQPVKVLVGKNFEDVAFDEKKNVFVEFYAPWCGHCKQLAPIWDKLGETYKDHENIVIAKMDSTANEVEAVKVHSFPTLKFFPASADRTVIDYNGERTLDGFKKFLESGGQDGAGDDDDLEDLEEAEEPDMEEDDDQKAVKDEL
UniProt P19483: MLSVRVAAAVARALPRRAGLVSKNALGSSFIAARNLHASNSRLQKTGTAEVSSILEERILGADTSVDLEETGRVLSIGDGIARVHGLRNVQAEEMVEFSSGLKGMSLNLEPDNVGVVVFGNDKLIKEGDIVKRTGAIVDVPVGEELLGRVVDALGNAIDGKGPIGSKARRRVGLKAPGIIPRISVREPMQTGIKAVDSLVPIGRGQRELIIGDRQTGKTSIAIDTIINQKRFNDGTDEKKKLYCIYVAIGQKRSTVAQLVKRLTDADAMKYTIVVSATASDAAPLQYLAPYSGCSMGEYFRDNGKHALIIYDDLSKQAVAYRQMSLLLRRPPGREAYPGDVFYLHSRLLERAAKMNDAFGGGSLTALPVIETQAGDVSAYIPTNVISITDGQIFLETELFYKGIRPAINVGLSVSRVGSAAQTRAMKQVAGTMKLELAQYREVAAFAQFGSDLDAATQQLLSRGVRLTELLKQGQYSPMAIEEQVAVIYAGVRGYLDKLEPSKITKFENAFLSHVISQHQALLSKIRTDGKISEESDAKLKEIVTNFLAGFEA

Key:
[1] = target: recombinant hsp60 (UniProt P10809); assay: SPR; Biacore X; recombinant hsp60 immobilised by amine coupling on a carboxymethyldextran chip (~10ng/mm^2); purified bovine ATP synthase injected at 10 µl/min in increasing amounts; 10mM HEPES, 150mM NaCl, 2mM EDTA; blank flow cell subtracted; both purified
[2] = target: gp96 (HUVEC membrane-enriched proteins) (human (endogenous in HUVEC)) (UniProt P14625); assay: far-Western, overlay or dot blot; HUVEC membrane-enriched proteins resolved on bidimensional gels, blotted onto PVDF, incubated with 2 µg/ml recombinant hsp60, probed with anti-hsp60 mAb (clone LK-1); additional spots cut from a Coomassie-stained gel and identified by MALDI mass spectrometry; only the binder purified
[3] = target: prolyl-4-hydroxylase β-subunit (HUVEC membrane-enriched proteins) (human (endogenous in HUVEC)) (UniProt P07237); assay: as above

Row | Substance | binding [1] | binding [2] | binding [3]
1 | purified bovine ATP synthase complex (from UniProt P19483 44-553; P00829 47-528; P05631 26-298) | binds | – | –
2 | recombinant hsp60 (from UniProt P10809 27-573) | – | binds | binds
